Results on 54 compounds are retold here after PubChem BioAssay AID1487 (National Center for Advancing Translational Sciences (NCATS), 2009).

The list shows a part of the results. Shown are side measurements of this screen, not its main read-out; they come without a call. The list favours compounds with an active or inconclusive main result. Words in brackets tell the shape of the fitted curve; partial curves, single points and poor fits give uncertain potencies.

A short description of the experiment: qHTS Assay for Modulators of Lamin A Splicing. The following applies: HeLa LMNA splicing GFP/RFP minigene ratio, 48 h. Put shortly: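 S3 HeLa stable clones carrying a lamin A-EGFP splicing minigene plus DsRed2 were seeded at 600 cells/well in Opti-MEM with 2% FBS, pin-dosed and incubated 48 h at 37°C. Acumen cytometry (488 nm) gave the GFP/RFP total-intensity ratio.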
(In qHTS, concentration-response curves come from the screen itself.)

Where [1] appears, read: measured here: GFP splicing reporter channel.
The mark [2] stands for this setting: measured here: RFP viability control channel.

One may read the AC50 as the midpoint of the concentration-response curve, whichever way the signal moves. For `Cc1cc(NC(=O)c2ccccc2-c2ccccc2)ccc1Br`, the AC50 reads like this: under setting [1], 25.1 µM [rising, single point]; under setting [2], 35.5 µM [rising, single point].

Turning to `Cc1ccn2c(CNCCn3nc(C)cc3C)c(C(=O)N3CCCCCC3)nc2c1`, under setting [1], the AC50 was 0.01 µM [rising, full curve, poor fit].

For the compound `Cc1ccc2nc(N(Cc3cccnc3)C(=O)C3COc4ccccc4O3)sc2c1` (stereo unspecified), the AC50 under setting [1] is 0.178 µM [rising, full curve, poor fit].

Regarding `CCc1c(C)sc2c1CCN(Cc1ccc(F)cc1)C2c1ccccc1` (stereo unspecified), the concentration at half-maximal activity (AC50) is, setting by setting: under setting [1], 2.82 µM [rising, partial curve, poor fit]; under setting [2], 14.1 µM [rising, partial curve].

Turning to `O=c1cc(Cn2ccnc2)c2cc3c(cc2o1)CCC3`, the AC50 under setting [1] was 11.2 µM [rising, partial curve].

For `CCCN(CCc1ccccc1)C1CCc2c(O)cccc2C1` (stereo unspecified), the AC50 under setting [1] is 0.00158 µM [rising, full curve, poor fit] and the concentration at half-maximal activity (AC50) under setting [2] is 0.00355 µM [rising, full curve, poor fit].

Regarding `Cc1ccc(S(=O)(=O)NNC(=O)Nc2ccc(Cl)c(Cl)c2)cc1`, under setting [1], the concentration at half-maximal activity (AC50) was 11.2 µM [falling, single point].

For `CCc1nnc(NC(=O)CSCc2cc(=O)c3ccc(C)cc3[nH]2)s1`, the AC50 reads like this: under setting [1], 0.501 µM [rising, full curve, poor fit]; under setting [2], 1.41 µM [rising, partial curve, poor fit].

`CCCSc1nc(C)c(-c2csc(C(C#N)=C3CCCC3)n2)cc1C#N`: under setting [1], the half-maximal activity concentration (AC50) is 17.8 µM [rising, single point].

Take `O=C(N/C(=C\c1ccc([N+](=O)[O-])cc1)C(=O)N1CCOCC1)c1ccccc1`: the AC50 under setting [2] was 1.41 µM [falling, partial curve, poor fit].

As for `COc1cccc(C(=O)Nc2nnc(-c3cccs3)o2)c1`, under setting [2], the AC50 was 2.82 µM [rising, partial curve, poor fit].

Take `Cc1cc(O)c(C(c2ccccc2Cl)N2CCN(c3ccccc3)CC2)c(=O)n1Cc1ccco1` (stereo unspecified): under setting [2], the AC50 was 0.282 µM [rising, full curve, poor fit].

Turning to `CCC(C)NC(=O)CC(NS(=O)(=O)c1ccc(C)cc1)c1ccc(OC)cc1` (stereo unspecified), the AC50 under setting [2] was 0.891 µM [falling, full curve, poor fit].

For `Nc1nc(SCc2ccc(Cl)cc2Cl)nc2nc3c(cc12)CCCC3`, under setting [1], the AC50 was 11.2 µM [rising, partial curve].

For `Cc1cc(C(=O)N/N=C2/CC(C)CC(C)(C)C2)c(C)o1` (stereo unspecified), the concentration at half-maximal activity (AC50) reads like this: under setting [1], 1.26 µM [falling, partial curve]; under setting [2], 0.00501 µM [falling, full curve, poor fit].

In the case of `CC(C)(C)n1nc(-c2ccc(F)cc2)c2c(N)ncnc21`, the concentration at half-maximal activity (AC50) by setting is: under setting [1], 15.8 µM [rising, single point]; under setting [2], 15.8 µM [rising, single point].

Turning to `CC(=O)N/C(=C/c1ccc2c(c1)OCO2)C(=O)NCc1ccccc1`, the AC50 was 1.41 µM [falling, full curve, poor fit] under setting [1] and 1.41 µM [falling, full curve, poor fit] under setting [2].

As for `COc1ccccc1N1CCN(C(=O)c2oc3cc(C)cc(C)c3c2C)CC1`, the AC50 under setting [2] is 11.2 µM [rising, partial curve].

Take `CC1CC(C)CN(C(=O)CCNS(=O)(=O)c2ccc3c(c2)CCC(=O)N3)C1` (stereo unspecified): the half-maximal activity concentration (AC50) by setting is: under setting [1], 15.8 µM [rising, single point]; under setting [2], 22.4 µM [rising, single point].

For the compound `C=C(C)CN(CC)c1nc(N)c2c(N)nc3c(c2c1C#N)CC(=O)N3C12CC3CC(CC(C3)C1)C2`, the AC50 under setting [2] was 11.2 µM [rising, partial curve].

With `CN(CC(=O)Nc1ccncc1)S(=O)(=O)c1ccc(Cl)cc1`, the concentration at half-maximal activity (AC50) under setting [1] was 12.6 µM [rising, single point].

Take `Cc1ccc(CN2c3ccccc3S(=O)(=O)c3ccccc32)cc1`: the AC50 under setting [2] was 39.8 µM [rising, partial curve, poor fit].

As for `CCOC(=O)C1=C(C)NC(=S)NC1c1ccc(-c2ccc(Cl)cc2)o1` (stereo unspecified), the AC50 is, setting by setting: under setting [1], 25.1 µM [rising, partial curve]; under setting [2], 35.5 µM [rising, single point].

With `Cc1cccc(Cn2c(SCCO)nc3c2c(=O)n(C)c(=O)n3C)c1`, the AC50 under setting [2] is 35.5 µM [rising, single point].

As for `Cc1ccc(Nc2nc(C(=O)NCc3ccco3)cs2)cc1`, the AC50 under setting [2] was 22.4 µM [rising, partial curve].

Turning to `COc1ccccc1-c1nnc2sc(COc3ccc(F)cc3)nn12`, the concentration at half-maximal activity (AC50) reads like this: under setting [1], 5.62 µM [rising, partial curve]; under setting [2], 14.1 µM [rising, partial curve, poor fit].

Regarding `Cn1nc(CC(=O)Nc2ccc3c(c2)OCCO3)c2ccccc2c1=O`, the concentration at half-maximal activity (AC50) by setting is: under setting [1], 0.447 µM [rising, full curve, poor fit]; under setting [2], 1.26 µM [rising, full curve].

For the compound `COc1cc(/C=C/C(=O)Nc2nnc(CC(C)C)s2)cc(OC)c1OC`, the AC50 under setting [2] was 12.6 µM [rising, partial curve, poor fit].

Consider `CCc1cc(=O)oc2cc(OC(C)=O)cc(OC(C)=O)c12`, for which the concentration at half-maximal activity (AC50) is, setting by setting: under setting [1], 14.1 µM [rising, single point]; under setting [2], 22.4 µM [rising, single point].

Consider `CCCn1c(Nc2nc3ccccc3n2C)nc2ccccc21`, for which the AC50 runs as follows: under setting [1], 35.5 µM [falling, single point]; under setting [2], 35.5 µM [falling, single point].

`CCOC(=O)c1ccc(CSc2nnc3cc(C)c4ccccc4n23)cc1`: the AC50 runs as follows: under setting [1], 7.08 µM [rising, partial curve, poor fit]; under setting [2], 8.91 µM [rising, partial curve, poor fit].

As to `Cc1sc2ncnc(N[C@@H](Cc3c[nH]c4ccccc34)C(=O)O)c2c1C`, the concentration at half-maximal activity (AC50) under setting [2] was 0.631 µM [falling, full curve, poor fit].

For `NC(=O)NC(CC(=O)NCCc1ccc(S(N)(=O)=O)cc1)c1ccccc1Cl` (stereo unspecified), the concentration at half-maximal activity (AC50) was 0.01 µM [rising, full curve, poor fit] under setting [1] and 4.47 µM [rising, full curve] under setting [2].

On to `O=c1oc2c(CN3CCN(CCO)CC3)c(O)ccc2cc1-c1ccccn1`, for which the AC50 runs as follows: under setting [1], 0.316 µM [rising, full curve]; under setting [2], 0.447 µM [rising, full curve, poor fit].

`O=C(N/N=C/C=C\c1ccco1)c1cccnc1`: under setting [2], the concentration at half-maximal activity (AC50) is 0.0112 µM [falling, full curve, poor fit].

Regarding `CCN1C(=O)N[C@H](c2ccc(Br)cc2)C(C(C)=O)=C1C`, under setting [1], the concentration at half-maximal activity (AC50) was 0.01 µM [falling, full curve, poor fit].

For the compound `CCN(CC)c1ccc(NS(=O)(=O)c2ccc3c(c2)CCCN3C(C)=O)c(C)c1`, the concentration at half-maximal activity (AC50) under setting [1] is 35.5 µM [falling, single point].

With `CC(C)Cn1c(N)c(C(=O)COC(=O)CC23CC4CC(CC(C4)C2)C3)c(=O)n(C)c1=O`, the concentration at half-maximal activity (AC50) by setting is: under setting [1], 20 µM [rising, single point]; under setting [2], 2.82 µM [rising, full curve].

As for `Cc1cccc(N2CCN(C(=O)c3ccncc3)CC2C)c1` (stereo unspecified), the AC50 under setting [1] was 35.5 µM [falling, single point].

For the compound `CCc1ccc(N2CCn3c2nc2c3c(=O)n(Cc3cccc(C)c3)c(=O)n2C)cc1`, the AC50 under setting [1] was 1.12 µM [rising, full curve, poor fit].

Take `CC1CC2=C(C(=O)O1)C(c1ccc(Cl)cc1)Nc1ccccc1N2` (stereo unspecified): the AC50 by setting is: under setting [1], 2.82 µM [falling, partial curve, poor fit]; under setting [2], 1.41 µM [falling, partial curve].

As for `CC1=CC(C)(C)Nc2ccc(OC(=O)C(Cc3ccccc3)N3C(=O)c4ccccc4C3=O)cc21` (stereo unspecified), the concentration at half-maximal activity (AC50) is, setting by setting: under setting [1], 15.8 µM [rising, partial curve]; under setting [2], 11.2 µM [rising, partial curve].

Consider `CN(CCC1CCCCO1)C(=O)CCc1nnc(CCCCc2ccccc2)o1` (stereo unspecified), for which the concentration at half-maximal activity (AC50) under setting [2] was 1.41 µM [falling, full curve].

For `S=C(Nc1ccc2c(c1)OCO2)N1CCN(Cc2ccco2)CC1`, the AC50 under setting [1] is 0.0794 µM [rising, full curve, poor fit].

Consider `COc1cc(-c2nnc(CSc3nnc(Nc4ccc(C(C)C)cc4)s3)o2)cc(OC)c1OC`, for which the AC50 under setting [2] was 17.8 µM [rising, partial curve, poor fit].

`CCOC(=O)c1cnc2ccc(C(=O)OC)cc2c1Nc1ccc2c(c1)OCCO2`: under setting [2], the AC50 is 0.282 µM [falling, full curve, poor fit].

For `COC(=O)c1[nH]c2cccc(OC)c2c1NC(=O)CCN1CCSCC1`, the concentration at half-maximal activity (AC50) under setting [1] is 0.708 µM [rising, single point].

For `CC1(C)CC(N2CN(C3CCCCC3)CC2=O)CC(C)(C)N1`, under setting [2], the AC50 was 0.0126 µM [falling, full curve, poor fit].

On to `COc1ccc(CCNc2oc(-c3ccc(OC)c(OC)c3)nc2C#N)cc1`, for which the AC50 under setting [2] was 35.5 µM [rising, single point].

As for `Cc1cc(C(=O)N/N=C/c2cc(N=Nc3ccccc3)ccc2O)n[nH]1`, the half-maximal activity concentration (AC50) is 0.794 µM [falling, full curve, poor fit] under setting [1] and 0.355 µM [rising, full curve] under setting [2].

Turning to `O=C(c1ccc2c(c1)OCCO2)N(Cc1cccnc1)c1nc2ccc(F)cc2s1`, the half-maximal activity concentration (AC50) under setting [1] was 0.355 µM [rising, full curve, poor fit] and the AC50 under setting [2] was 7.08 µM [rising, partial curve, poor fit].

Consider `CCC(=O)NC1=C(Cl)C(=O)C(NC(=O)CC)=C(Cl)C1=O`, for which the AC50 under setting [2] is 7.08 µM [falling, full curve].

For the compound `COc1ccc(-n2c(C)cc(/C=N/Nc3nc(N4CCOCC4)nc(N4CCOCC4)n3)c2C)cc1`, the half-maximal activity concentration (AC50) under setting [2] was 31.6 µM [rising, single point].

Take `N=C1S/C(=C\c2cccc3ccccc23)C(=O)N1c1ccc(F)cc1`: the AC50 is 12.6 µM [falling, partial curve] under setting [1] and 35.5 µM [falling, single point] under setting [2].
